The text below walks through data of paper doi:10.1101/2025.05.04.652104.

Results are given in words; binding and its absence hold for the method and conditions named. Where a sequence is shown, tags or fusion partners need not be part of it.

For this assay, the target named is recombinant full-length human Sialin, FLAG-tagged (human) (UniProt Q9NRA2). The assay can be described thus: cryo-EM micrographs and 2D classification.

B1: recombinant full-length human Sialin, FLAG-tagged (protein, UniProt Q9NRA2 1-495)
chain: MRSPVRDLARNDGEESTDRTPLLPGAPRAEAAPVCCSARYNLAILAFFGFFIVYALRVNLSVALVDMVDSNTTLEDNRTSKACPEHSAPIKVHHNQTGKKYQWDAETQGWILGSFFYGYIITQIPGGYVASKIGGKMLLGFGILGTAVLTLFTPIAADLGVGPLIVLRALEGLGEGVTFPAMHAMWSSWAPPLERSKLLSISYAGAQLGTVISLPLSGIICYYMNWTYVFYFFGTIGIFWFLLWIWLVSDTPQKHKRISHYEKEYILSSLRNQLSSQKSVPWVPILKSLPLWAIVVAHFSYNWTFYTLLTLLPTYMKEILRFNVQENGFLSSLPYLGSWLCMILSGQAADNLRAKWNFSTLCVRRIFSLIGMIGPAVFLVAAGFIGCDYSLAVAFLTISTTLGGFCSSGFSINHLDIAPSYAGILLGITNTFATIPGMVGPVIAKSLTPDNTVGEWQTVFYIAAAINVFGAIFFTLFAKGEVQNWALNDHHGHRH
B1: the binding entry is given as “no binding”.
